Some of the results follow. Repeats are few or missing, and single values can be far off.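 The apoptosis fraction was the count of cleaved-PARP antibody-stained nuclei relative to all DNA-stained nuclei, imaged in 1,536-well plates. Screening doses were set so most cells survived, and baseline and induced cleaved-PARP levels vary greatly across cell lines.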
Legend:
Test in all cases: cleaved PARP positive nuclei fraction relative to DMSO control; melanoma cells; higher = more apoptosis
Conditions in all cases: library dose: low library concentration; 72 h
MZ2-MEL = test system: MZ2-MEL
MeWo = test system: MeWo
RPMI7951 = test system: RPMI7951
RVH-421 = test system: RVH-421
SkMel28 = test system: SkMel28
SkMel2 = test system: SkMel2
SkMel30 = test system: SkMel30
SkMel5 = test system: SkMel5
UACC257 = test system: UACC257
UACC62 = test system: UACC62
WM115 = test system: WM115
WM1716 = test system: WM1716
WM1745 = test system: WM1745
WM3526 = test system: WM3526
WM3619 = test system: WM3619
WM451Lu = test system: WM451Lu

Compound	cleaved PARP positive nuclei fraction (MZ2-MEL)	cleaved PARP positive nuclei fraction (MeWo)	cleaved PARP positive nuclei fraction (RPMI7951)	cleaved PARP positive nuclei fraction (RVH-421)	cleaved PARP positive nuclei fraction (SkMel28)	cleaved PARP positive nuclei fraction (SkMel2)	cleaved PARP positive nuclei fraction (SkMel30)	cleaved PARP positive nuclei fraction (SkMel5)	cleaved PARP positive nuclei fraction (UACC257)	cleaved PARP positive nuclei fraction (UACC62)	cleaved PARP positive nuclei fraction (WM115)	cleaved PARP positive nuclei fraction (WM1716)	cleaved PARP positive nuclei fraction (WM1745)	cleaved PARP positive nuclei fraction (WM3526)	cleaved PARP positive nuclei fraction (WM3619)	cleaved PARP positive nuclei fraction (WM451Lu)
C[C@@H](N)c1ccc(C(=O)Nc2ccnc3[nH]ccc23)cc1 + COc1ccc(COc2ccc(Cc3cnc(N)nc3N)cc2OC)cc1 [GW2580] (first compound 0.4 µM, partner dose 1 µM)	192%	232%	169%	157%	119%	95.8%	42.1%	185%	205%	135%	116%	103%	118%	74%	93.6%	137%
CS(=O)(=O)c1ccc(C(=O)Nc2ccc(Cl)c(-c3ccccn3)c2)c(Cl)c1 [vismodegib] + CC1(C)NC(=O)N(c2ccc([N+](=O)[O-])c(C(F)(F)F)c2)C1=O [nilutamide] (first compound 1 µM, partner dose 1 µM)	72.7%	104%	130%	87.5%	37.6%	120%	66.9%	250%	113%	43.6%	131%	80.8%	104%	50%	89.4%	103%
CN(c1ncccc1CNc1nc(Nc2ccc3c(c2)CC(=O)N3)ncc1C(F)(F)F)S(C)(=O)=O + COc1ccc2c(c1)CCC1C2CCC2(C)C(NCCCCCCN3C(=O)C=CC3=O)CCC12 [U73122] (first compound 0.08 µM, partner dose 0.4 µM)	31.1%	109%	107%	111%	39.5%	164%	31.7%	90%	191%	87.7%	95.6%	32.8%	130%	155%	86.2%	231%
C[C@]1(O)C[C@@H](c2nc(-c3ccc4ccc(-c5ccccc5)nc4c3)c3c(N)nccn32)C1 + CN(NC(=O)CC(=O)NN(C)C(=S)c1ccccc1)C(=S)c1ccccc1 [STA4783] (first compound 0.4 µM, partner dose 0.006 µM)	133%	154%	132%	61.4%	333%	139%	68.1%	691%	241%	282%	173%	197%	1780%	65.9%	312%	93.1%
COc1ccc(C2=N[C@@H](c3ccc(Cl)cc3)[C@@H](c3ccc(Cl)cc3)N2C(=O)N2CCNC(=O)C2)c(OC(C)C)c1 [Nutlin-3] + COc1cc2c(Oc3ccc4[nH]c(C)cc4c3F)ncnc2cc1OCCCN1CCCC1 [cediranib] (first compound 0.1 µM, partner dose 0.4 µM)	39.4%	68.1%	120%	30.6%	133%	77.4%	69.1%	126%	133%	53.1%	66.2%	58.5%	99.5%	61.2%	97%	83.7%
NC(=O)c1ccc(N(C(N)=O)c2c(F)cccc2F)nc1-c1ccc(F)cc1F + Nc1ccn([C@@H]2O[C@H](CO)[C@@H](O)C2(F)F)c(=O)n1 [gemcitabine] (first compound 0.4 µM, partner dose 0.0004 µM)	110%	64.8%	73.9%	61.4%	80.6%	39.3%	31.9%	51%	51%	94%	105%	102%	155%	139%	126%	39.4%
CCN(CC)CCNC(=O)c1c(C)[nH]c(/C=C2\C(=O)Nc3ccc(F)cc32)c1C [sunitinib] + CCCCCCCCCCCC1=C(O)C(=O)C=C(O)C1=O [Embelin] (first compound 0.4 µM, partner dose 1.2 µM)	100%	139%	58.2%	62.8%	127%	84.6%	32.7%	70.1%	30.5%	101%	90%	62.3%	94.4%	229%	62.9%	197%
NC1(c2ccc(-c3nc4ccn5c(=O)[nH]nc5c4cc3-c3ccccc3)cc2)CCC1 + Oc1nc(-c2ccc(C(F)(F)F)cc2)nc2c1CSCC2 [XAV939] (first compound 0.4 µM, partner dose 2 µM)	160%	58.1%	59.8%	137%	224%	85.3%	71.7%	183%	137%	64.7%	138%	346%	102%	70.8%	111%	107%
CS(=O)(=O)c1ccc(C(=O)Nc2ccc(Cl)c(-c3ccccn3)c2)c(Cl)c1 [vismodegib] + Cc1cc([N+](=O)[O-])ccc1NS(=O)(=O)c1cc(Cl)ccc1Cl [FH535] (first compound 1 µM, partner dose 1 µM)	85.8%	118%	98.9%	92.4%	109%	69.1%	70.8%	87.7%	135%	72.2%	236%	25.4%	83.1%	38%	100%	520%
NC(=O)c1ccc(N(C(N)=O)c2c(F)cccc2F)nc1-c1ccc(F)cc1F + Cn1cncc1[C@@](N)(c1ccc(Cl)cc1)c1ccc2c(c1)c(-c1cccc(Cl)c1)cc(=O)n2C [tipifarnib] (first compound 0.4 µM, partner dose 0.01 µM)	95.5%	86.8%	160%	73%	189%	75.7%	241%	63.5%	166%	61.6%	85.5%	117%	99.9%	66.2%	101%	117%
Cn1sc(=O)n(Cc2ccccc2)c1=O + OCCn1cc(-c2cnc3nnn(Cc4ccc5ncccc5c4)c3n2)cn1 [PF04217903] (first compound 0.4 µM, partner dose 1 µM)	78.2%	242%	138%	162%	120%	95.1%	58.3%	172%	99.3%	250%	127%	124%	86%	47.9%	80.9%	63.9%
C[C@@H](N)c1ccc(C(=O)Nc2ccnc3[nH]ccc23)cc1 + O=C(Nc1ccccc1)c1cc([N+](=O)[O-])ccc1Cl [GW9662] (first compound 0.4 µM, partner dose 2 µM)	167%	138%	31.3%	49.4%	107%	48.6%	176%	87%	479%	173%	37.3%	51.8%	99.2%	169%	78.1%	104%
C[C@]1(O)C[C@@H](c2nc(-c3ccc4ccc(-c5ccccc5)nc4c3)c3c(N)nccn32)C1 + OCCn1cc(-c2cnc3nnn(Cc4ccc5ncccc5c4)c3n2)cn1 [PF04217903] (first compound 0.4 µM, partner dose 1 µM)	133%	45%	131%	33.6%	121%	85.4%	85.3%	36.6%	39.2%	193%	137%	145%	124%	43.4%	145%	31.7%
CCCCCCCCc1ccc(CCC(N)(CO)CO)cc1 [fingolimod] + O=C1NC(=O)/C(=C/c2ccc(-c3ccc(F)cc3O)o2)S1 [AS252424] (first compound 2 µM, partner dose 1 µM)	126%	29.5%	109%	37.2%	158%	99.7%	42.9%	156%	166%	251%	167%	56.4%	133%	172%	103%	133%
NC1(c2ccc(-c3nc4ccn5c(=O)[nH]nc5c4cc3-c3ccccc3)cc2)CCC1 + Oc1cc(-c2nc(-c3ccccc3)[nH]c2-c2ccncc2)ccc1Cl [L779450] (first compound 0.4 µM, partner dose 0.2 µM)	20.2%	37.2%	33%	157%	191%	90%	28%	65.2%	271%	161%	51.1%	30.8%	79.6%	476%	117%	136%
CCCCCCCCc1ccc(CCC(N)(CO)CO)cc1 [fingolimod] + O=C(O)C(=O)Nc1sc2c(c1C(=O)O)CCNC2 [TCS401] (first compound 2 µM, partner dose 1.66667 µM)	37.8%	126%	147%	144%	229%	48.8%	29.2%	92.9%	62.8%	152%	199%	118%	107%	92%	104%	66.7%
CS(=O)(=O)c1ccc(C(=O)Nc2ccc(Cl)c(-c3ccccn3)c2)c(Cl)c1 [vismodegib] + O=C(O)c1ccc(-c2c[nH]c3ncc(-c4ccccc4)cc23)cc1C1CCCC1 [GSK650394] (first compound 1 µM, partner dose 0.16 µM)	81.6%	234%	62.5%	93.5%	28.2%	62.1%	67.8%	68.6%	109%	99.8%	62%	77.4%	93.8%	57.3%	81.3%	55.9%
NC(=O)c1ccc(N(C(N)=O)c2c(F)cccc2F)nc1-c1ccc(F)cc1F + COc1cc(Nc2ncc(F)c(Nc3ccc4c(n3)NC(=O)C(C)(C)O4)n2)cc(OC)c1OC [Tamatinib] (first compound 0.4 µM, partner dose 0.4 µM)	150%	112%	250%	52.5%	115%	129%	245%	157%	88.3%	285%	88.9%	108%	123%	106%	94.9%	63.2%

An excerpt of these results, in CSV form:
Compound,cleaved PARP positive nuclei fraction (MZ2-MEL),cleaved PARP positive nuclei fraction (MeWo),cleaved PARP positive nuclei fraction (RPMI7951),cleaved PARP positive nuclei fraction (RVH-421),cleaved PARP positive nuclei fraction (SkMel28),cleaved PARP positive nuclei fraction (SkMel2),cleaved PARP positive nuclei fraction (SkMel30),cleaved PARP positive nuclei fraction (SkMel5),cleaved PARP positive nuclei fraction (UACC257),cleaved PARP positive nuclei fraction (UACC62),cleaved PARP positive nuclei fraction (WM115),cleaved PARP positive nuclei fraction (WM1716),cleaved PARP positive nuclei fraction (WM1745),cleaved PARP positive nuclei fraction (WM3526),cleaved PARP positive nuclei fraction (WM3619),cleaved PARP positive nuclei fraction (WM451Lu)
"CS(=O)(=O)c1ccc(C(=O)Nc2ccc(Cl)c(-c3ccccn3)c2)c(Cl)c1 [vismodegib] + O=C(O)c1ccc(-c2c[nH]c3ncc(-c4ccccc4)cc23)cc1C1CCCC1 [GSK650394] (first compound 1 µM, partner dose 0.16 µM)",81.6%,234%,62.5%,93.5%,28.2%,62.1%,67.8%,68.6%,109%,99.8%,62%,77.4%,93.8%,57.3%,81.3%,55.9%
"NC(=O)c1ccc(N(C(N)=O)c2c(F)cccc2F)nc1-c1ccc(F)cc1F + COc1cc(Nc2ncc(F)c(Nc3ccc4c(n3)NC(=O)C(C)(C)O4)n2)cc(OC)c1OC [Tamatinib] (first compound 0.4 µM, partner dose 0.4 µM)",150%,112%,250%,52.5%,115%,129%,245%,157%,88.3%,285%,88.9%,108%,123%,106%,94.9%,63.2%

Reference: the supplement of paper PMC4604168 (melanoma cell lines)
